From PubChem BioAssay AID2417 (National Center for Advancing Translational Sciences (NCATS), 2010)
In all, about 140,000 compounds went through this assay and about 4,300 (3.1%) were called active. This list was built around the results that the source calls inconclusive (neither active nor inactive); the mix of calls is not that of the screen.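 How the source made its calls: active means readout at or below -70, meaning at least 70% loss of cells showing the perinucleolar compartment, a nuclear body marking cancer cells; inconclusive means readout between -30 and a set limit; inactive means the rest.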

Experiment: High Content Assay for Compounds that inhibit the Assembly of the Perinucleolar Compartment;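 further: plate controls were DMSO wells for no effect and camptothecin positive control wells for full effect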
Conditions: PC3M PTB-GFP, PNC prevalence imaging, 16 h; at 10 µM; stronger effect = lower value
Procedure, shortened: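 Read-out is percentage of cells bearing a perinucleolar compartment, from automated 20x imaging of fixed, Hoechst-stained PC3M PTB-GFP cells. Cells were seeded 4 h, then exposed 16 h to compound (23 nl of library stock) in duplicate plates.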

SMILES	activity change (PNC), negative = inhibition
CCn1c(COc2cccc(C)c2)nc2ccccc21	inconclusive: -35.5%
Cc1ccc(-c2nc(CN(C)C)cc(CN(C)C)c2O)cc1	inconclusive: -31.9%
O=c1c([N+](=O)[O-])c(NCCN2CCCCCC2)c2ccccc2n1-c1ccccc1	inconclusive: -73.4%
Cc1ccc(OC(C)C(=O)Nc2ccc(C)c(S(=O)(=O)Nc3ccc(C)cc3C)c2)cc1 (stereo unspecified)	inconclusive: -71.2%
S=c1[nH]nc(CSCc2ccccc2Cl)n1-c1ccccc1	inactive: -7.78%
Cc1nc(C)n(CC(O)COc2ccc(C(=O)c3ccccc3)cc2)n1 (stereo unspecified)	active: -95%
Cn1c(=O)[nH]c(=O)c2c1nc(NCCCn1ccnc1)n2CCOc1ccccc1	inactive: -12.7%
COCCOC(=O)c1c(C)oc2ccc(OC(=O)c3cccs3)cc12	active: -139%
COc1ccc(OC)c(CCNC(=O)CC2Oc3ccccc3NC2=O)c1 (stereo unspecified)	inconclusive: -38.5%
CCCCn1c(SCC(=O)Nc2ccccc2C(F)(F)F)nc2ccsc2c1=O	inconclusive: -52.3%
O=C(Nc1ccc(Cl)cc1)NC1(C(=O)NCCCN2CCOCC2)CCCCC1	inconclusive: -56.9%
Cc1ccc2cc(C#N)c(SCC(=O)N3CCCc4ccccc43)nc2c1	inactive: 7.87%
Cc1ccc(S(=O)(=O)NC2CCC(C(=O)O)CC2)cc1 (stereo unspecified)	active: -103%
N#Cc1c(-c2ccc(Br)cc2)nc2n(c1=O)CCCS2	inconclusive: -57.1%
O=c1[nH]nc(Cc2ccccc2)c2ccccc12	inactive: 3.43%
COc1cc(/C=C/C(=O)OCC(=O)Nc2ccc3c(c2)OCCO3)ccc1OCC#N	inactive: 16.3%
Cc1ccc(-n2[nH]c(C)c(/C=N/Nc3ccc([N+](=O)[O-])cc3[N+](=O)[O-])c2=O)cc1C	inconclusive: -40%
Clc1cccc(NCc2nnc(SCc3ccccc3)o2)c1	inconclusive: -59.5%
COc1ccc(Nc2nc(Nc3ccc(OC)cc3OC)nc(N3CCN(C)CC3)n2)c(OC)c1	inactive: -17.9%
c1ccc(Nc2ccccc2Nc2ccccn2)nc1	inactive: 118%
O=C1/C(=C/c2ccc(N3CCCC3)cc2)NC(=S)N1C1CC1	inactive: 45.1%
C=C(C)Cn1c(CCn2c3ccccc3c3ccccc32)n[nH]c1=S	inactive: 16.1%
O=C1C=C(c2ccccc2)C[C@H](c2cccs2)[C@H]1n1nnc([N+](=O)[O-])n1	inactive: -29.3%

SMILES	activity change (PNC), negative = inhibition
Cc1cccc(OCc2n[nH]c(=S)o2)c1	active: -81.7%
Cn1nnc2cc(NC(=O)N3CCN(c4ccccn4)CC3)ccc21	inconclusive: -58.2%
Cc1ccccc1OCc1nnc(SCC(=O)Nc2ccc(N3CCOCC3)c(Cl)c2)n1C	inconclusive: -69.1%
Cc1cc(C(=O)COC(=O)c2n[nH]c3ccccc23)c(C)n1CC1CCCO1 (stereo unspecified)	inconclusive: -75.1%
CCOC(=O)C1=C(C)Nc2ncnn2C1c1ccccc1F (stereo unspecified)	inconclusive: -70.9%
COc1ccc(CN(Cc2ccc(OC)cc2)S(=O)(=O)c2ccc(-n3cnnn3)c(C)c2)cc1	inconclusive: -38%
Cc1ccc(CNC(=O)C2(c3cccs3)CCOCC2)cc1	inconclusive: -39%
C=CCN1C(=O)CN=C1Nc1cccc(C)c1	inactive: 0.536%
CCOC(=O)c1ccc(C(=O)OCC)c(NC(=S)Nc2ccc([N+](=O)[O-])cc2OC)c1	inactive: -12%
Fc1cccc(NC(=S)NCc2ccccn2)c1	active: -91%
CN(CC(=O)Nc1cccc2ccccc12)c1ccc(S(=O)(=O)N2CCOCC2)cn1	inconclusive: -38%
Cc1cc(C)n(C(=O)c2c([N+](=O)[O-])cnn2C)n1	inconclusive: -40.3%
CC(=O)N1CCc2c(sc(NC(=O)CN3C(=O)CCC3=O)c2C(N)=O)C1	inconclusive: -37%
O=C1OCCC1Sc1nc2ccccc2c(=O)n1Cc1ccc(F)cc1 (stereo unspecified)	inactive: 7.2%
Cc1cc(NC(=O)c2cc(-c3cccnc3)nc3c(C)c(C)ccc23)no1	inconclusive: -56.5%
COC(=O)c1ccc(/C=C(\C#N)c2nc3ccccc3s2)cc1	inactive: 70%
O=C(CCc1nc2ccccc2s1)OCc1ccccc1F	inactive: -6.76%
CCCC(=O)NCCCc1nc2ccccc2n1C(C)C	inconclusive: -36.9%
CCOc1ccc(OCC)c(S(=O)(=O)NCc2cccnc2)c1	inconclusive: -36%
CSc1nsc(SCC(=O)N2CCN(c3ccccc3)CC2)n1	inactive: -17.7%
COC(=O)CCc1c(C)nc(N)[nH]c1=O	active: -112%
O=C(COC(=O)CCS(=O)(=O)c1ccc(Cl)cc1)NCCc1ccc(Cl)cc1Cl	inconclusive: -54.3%
CC(=O)Nc1c(C(=O)N2CCOCC2)sc2nc3c(cc12)COC(C)(C)C3	inactive: -28.9%

SMILES	activity change (PNC), negative = inhibition
CCOC(=O)Cn1cc(C(=O)c2cccs2)c2ccccc21	inconclusive: -61.5%
CCN1CCN(C(=O)c2oc(=O)c3ccccc3c2-c2ccc(C)cc2)CC1	inactive: 7.24%
Cc1ccccc1CCN(C(=O)CN1C(=O)c2ccccc2S1(=O)=O)C(C(=O)NCC1CCCO1)c1ccncc1 (stereo unspecified)	inactive: 52.9%
Cc1nn(CC(=O)NCc2ccc(-n3cccn3)cc2)c(C)c1[N+](=O)[O-]	inactive: 54.5%
CN(C(=O)c1ccco1)c1nc2c(s1)CCCC2	inactive: 52.7%
CS(=O)(=O)C1=C(O)C(=O)N(CCCC(=O)O)C1c1ccccc1F (stereo unspecified)	inconclusive: -37.3%
O=C(COc1ccccc1Cl)N1CCN(c2ccc([N+](=O)[O-])c(N3CCCCC3)c2)CC1	inconclusive: -30.4%
O=c1c2nnn(Cc3ccc(Cl)cc3)c2ncn1Cc1ccc(F)cc1	inactive: -28.3%
O=C(CN1CCCCCCC1)N/N=C/c1ccccc1F	inconclusive: -50.2%
O=C(O)C1CC(O)CN1C(=O)c1ccco1 (stereo unspecified)	inconclusive: -62%
O=C(Nc1cc2c3c(c1)C1CCCC1CN3CC1CCCC21)c1ccc([N+](=O)[O-])cc1 (stereo unspecified)	inconclusive: -37.7%
CC/C(=N/NC(=O)c1ccc(Br)cc1)c1ccc(OCCN2CCOCC2)cc1	inactive: 1.33%
C=CCn1c2ccccc2c2nnc(SC(CC)C(=O)Nc3sc4c(c3C#N)CCCC4)nc21 (stereo unspecified)	inconclusive: -39.6%
COc1ccc(OC)c(C(=O)CSc2nc3cccnc3n2C)c1	inactive: 29.9%
NCCn1c(-c2ccccc2)cc(C(=O)O)c1-c1ccccc1F	active: -81.2%
CCOC(=O)N1CCN(c2nc(-c3ccc(OC)cc3)no2)CC1	inconclusive: -64.4%
O=S(=O)(c1ccc(S(=O)(=O)N2CCCC3(CCCCC3)C2)cc1)N1CCCCC1	inconclusive: -55.3%
COc1ccccc1N1CCN(CCCNC(=O)Nc2ccccc2C)CC1	inactive: 33.9%
Cc1cc(NC(=O)CCC(=O)N(CCC(C)C)C(C(=O)NC2CCCC2)c2cccnc2)no1 (stereo unspecified)	inconclusive: -39.6%
CC1CCN(C(=O)CSc2nnc(CNC(=O)COc3ccc(Cl)cc3)o2)CC1	inconclusive: -65.2%
C=C(C)C1CC=C(C)/C(=N/NC(=O)c2cccs2)C1 (stereo unspecified)	inconclusive: -34.4%
CCOc1cc(C2Nc3ccccc3C(=O)N2c2ccccc2OC)ccc1O (stereo unspecified)	inconclusive: -43.8%
Cc1ccc2cc3cc(C(=O)N4CC(C)CC(C)C4)oc3nc2c1 (stereo unspecified)	inconclusive: -31.3%

Gathered by group, the compounds so far with a cyano group.
SMILES	activity change (PNC), negative = inhibition
Cc1ccc2cc(C#N)c(SCC(=O)N3CCCc4ccccc43)nc2c1	inactive: 7.87%
N#Cc1c(-c2ccc(Br)cc2)nc2n(c1=O)CCCS2	inconclusive: -57.1%
COc1cc(/C=C/C(=O)OCC(=O)Nc2ccc3c(c2)OCCO3)ccc1OCC#N	inactive: 16.3%
COC(=O)c1ccc(/C=C(\C#N)c2nc3ccccc3s2)cc1	inactive: 70%
C=CCn1c2ccccc2c2nnc(SC(CC)C(=O)Nc3sc4c(c3C#N)CCCC4)nc21 (stereo unspecified)	inconclusive: -39.6%

More results:

SMILES	activity change (PNC), negative = inhibition
COCCSc1ccccc1C(=O)Nc1cc(C)on1	inconclusive: -35.6%
COc1ccc(C(=O)NCc2nnc(SCC(=O)Nc3nc4ccccc4s3)o2)cc1OC	inactive: 13.6%
CC[n+]1c(/C=C/C=C/N(C(C)=O)c2ccccc2)sc2cc(OC)ccc21	inconclusive: -40.8%
COc1ccc(CCNc2oc(-c3ccc(C)cc3)nc2C#N)cc1OC	active: -108%
Cc1ccccc1C(=O)NNC(=O)Cc1cccc2ccccc12	inconclusive: -53.2%
O=Cc1cccc(OC(=O)c2ccc(Cl)cc2Cl)c1	inactive: 47.9%
O=C(NC1CCN(Cc2ccccc2)CC1)C1CCCN(S(=O)(=O)c2cccc3nonc23)C1 (stereo unspecified)	inconclusive: -34.5%
O=C(CCN1CCN(c2ccccc2)CC1)Nc1nccs1	inconclusive: -44.7%
Cc1sc2ncnc(SCC(=O)N3CCCC3=O)c2c1C	active: -96.9%
COc1ccc(C(=O)NCCCc2nc3ccccc3n2Cc2ccccc2C)cc1OC	inconclusive: -45.8%
CCC(C)NC(=O)C1CCCCN1S(=O)(=O)c1ccc(F)cc1 (stereo unspecified)	inconclusive: -69.9%
O=C(COc1ccc([N+](=O)[O-])cc1)NCCC1=CCCCC1	inactive: -14.5%
Cc1cc2oc(C(=O)NC3CCS(=O)(=O)C3)c(C)c2cc1C (stereo unspecified)	inconclusive: -63.7%
CS(=O)(=O)Nc1ccc(C(=O)NCc2ccco2)cc1	inactive: -12.6%
Cc1nnc(SCC(=O)Nc2ncc3c(n2)CC(c2ccccc2)CC3=O)s1 (stereo unspecified)	inconclusive: -30.2%
O=C(COC(=O)c1cncc(Br)c1)NCCC1=CCCCC1	inconclusive: -34.6%
O=C1CC(N2CCN(c3ccccn3)CC2)C(=O)N1CC(c1ccccc1)c1ccccc1 (stereo unspecified)	inactive: -28.5%
COC(=O)c1ccccc1SC1CC(=O)N(c2ccccc2)C1=O (stereo unspecified)	inconclusive: -36.5%
CCC(C)c1ccc(NC(=S)Nc2ccc(OC)cc2C)cc1 (stereo unspecified)	inactive: 20.3%
Cn1cnnc1SCC(=O)c1cc2ccccc2oc1=O	inactive: -4.84%
O=c1c2c3c(sc2nc2n1N=C(c1cccs1)CS2)CCCC3	inconclusive: -51.7%
O=C(/C=C/c1ccc2c(c1)OCCCO2)c1ccccc1O	inconclusive: -63%
